Results of single-concentration screens

By UniProt entry, the sequences of proteins in these tests, tags left out. Residues count along the entry.
UniProt P9WPC5, whole entry: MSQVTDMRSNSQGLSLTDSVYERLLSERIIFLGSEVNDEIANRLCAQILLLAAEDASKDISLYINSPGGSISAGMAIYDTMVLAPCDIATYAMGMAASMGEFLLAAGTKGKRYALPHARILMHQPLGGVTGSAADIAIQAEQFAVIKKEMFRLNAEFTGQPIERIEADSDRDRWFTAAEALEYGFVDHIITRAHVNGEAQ
UniProt P9WPC3, whole entry partner: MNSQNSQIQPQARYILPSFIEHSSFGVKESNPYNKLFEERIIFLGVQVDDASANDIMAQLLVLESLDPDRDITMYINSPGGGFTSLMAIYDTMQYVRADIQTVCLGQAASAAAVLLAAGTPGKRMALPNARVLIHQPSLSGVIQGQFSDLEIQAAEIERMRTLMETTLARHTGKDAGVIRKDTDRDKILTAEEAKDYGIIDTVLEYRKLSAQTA
UniProt P9WNZ1, whole entry: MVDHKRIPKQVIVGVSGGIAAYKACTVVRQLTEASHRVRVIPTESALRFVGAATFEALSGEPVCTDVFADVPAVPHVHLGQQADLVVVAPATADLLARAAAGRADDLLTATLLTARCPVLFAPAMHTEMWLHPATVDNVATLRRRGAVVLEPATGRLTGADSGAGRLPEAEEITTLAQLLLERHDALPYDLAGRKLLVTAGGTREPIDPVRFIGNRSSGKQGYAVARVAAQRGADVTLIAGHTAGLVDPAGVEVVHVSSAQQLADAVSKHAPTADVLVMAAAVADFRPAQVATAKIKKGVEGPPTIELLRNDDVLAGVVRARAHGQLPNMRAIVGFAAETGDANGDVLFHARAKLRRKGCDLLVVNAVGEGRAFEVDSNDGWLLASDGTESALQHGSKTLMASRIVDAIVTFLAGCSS
UniProt Q8IDJ8, 1-583: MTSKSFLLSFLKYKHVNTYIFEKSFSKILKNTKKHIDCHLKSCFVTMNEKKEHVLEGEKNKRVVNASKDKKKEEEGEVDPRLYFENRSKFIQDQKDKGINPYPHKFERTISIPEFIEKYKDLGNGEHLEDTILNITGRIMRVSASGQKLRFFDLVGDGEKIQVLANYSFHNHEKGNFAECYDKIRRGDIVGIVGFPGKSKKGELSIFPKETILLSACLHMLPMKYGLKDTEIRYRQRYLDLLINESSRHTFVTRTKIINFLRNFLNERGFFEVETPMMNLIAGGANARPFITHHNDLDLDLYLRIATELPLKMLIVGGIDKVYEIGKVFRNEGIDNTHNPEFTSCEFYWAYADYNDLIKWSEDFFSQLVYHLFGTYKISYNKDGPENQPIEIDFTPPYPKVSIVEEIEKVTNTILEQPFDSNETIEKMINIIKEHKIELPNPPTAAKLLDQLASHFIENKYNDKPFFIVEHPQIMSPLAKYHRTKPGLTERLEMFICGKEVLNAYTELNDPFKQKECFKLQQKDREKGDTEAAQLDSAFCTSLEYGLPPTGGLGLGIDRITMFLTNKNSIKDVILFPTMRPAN

A: 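ClpP1P2, Mycobacterium tuberculosis (UniProt P9WPC5 and UniProt P9WPC3). Protease assay of ClpP1P2, read by the AMC dye that it sets free. Compounds at 50 µM. Higher reads as stronger inhibition, judged from the few compounds that gave an IC50. Most other retested compounds had strongly negative values. About 69,000 compounds were tested under these conditions; 0.015% (about 10) showed 50% or more at least once.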
B: 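Coenzyme A biosynthesis protein CoaBC, Mycobacterium tuberculosis (UniProt P9WNZ1). Enzyme assay of CoaBC with a phosphate dye (Biomol Green) read at 650 nm. Concentration: 30 µM. Direction is inferred from only a few compounds that gave an IC50; most scored high, so higher reads as stronger inhibition. Most strong results did not repeat in a second test. Of about 67,000 compounds tested this way, about 40 (0.06%) reached 50% or more in at least one test.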
C: 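Enzyme assay of the cytosolic lysyl-tRNA synthetase in 384-well plates, read by luminescence. Target: Lysine-tRNA ligase, Plasmodium falciparum 3D7 (UniProt Q8IDJ8). Tested at 30 µM. Direction is inferred from only a few compounds that gave an IC50; most scored high, so higher reads as stronger inhibition. Size under these conditions: about 69,000 compounds, about 49 of them at 50% or above in at least one test.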
D: 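Cell assay of Leishmania donovani living inside macrophages; the read-out is not stated. Concentration: 30 µM. The record gives no direction; compounds that gave an IC50 in retests scored well above the rest, so higher reads as stronger inhibition. Size under these conditions: about 69,000 compounds, about 1,000 of them at 50% or above in at least one test.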

Each number is a percent effect as filed. The record does not define 0% and 100%; most values in the screen are far below 50% and negative numbers occur (in some assays of this library far below -100). The compounds are a random part of those screened. Two or more numbers in one place are separate tests of the same structure; such repeats can differ widely. A dash means the value is not listed here; it may have been measured.

With CC(C)n1c(C(=O)N2CCCC2)nc2c1CCN(C)C2.O=C(O)C(F)(F)F the screen gave D: 14.15%.
With CNS(=O)(=O)CC(=O)N(Cc1c(F)cccc1Cl)C1CC1 the screen gave A: 5.251%; B: -0.6046%; C: -0.8992%; D: -7.144%.
With Cn1cccc1C(=O)N[C@H]1CN(Cc2ccoc2)[C@@H]2CCCO[C@H]12 the screen gave A: -3.508%; B: -1.733%; C: -0.4841%.
With CCN(CC(C)C#N)C(=O)CNc1ccc(C(N)=O)c(C)c1 (stereo unspecified) the screen gave A: 2.771%; B: 1.01%; C: 1.338%; D: -0.9914%.
With O=C(c1ccoc1)N1CC[C@H]2[C@H]1CCN2CC1CC1 the screen gave A: -12.24%; B: 2.703%; C: -1.954%.
With Fc1cccc(-c2cccc(N3CCC(NC4CCCOC4)CC3)c2)c1 (stereo unspecified) the screen gave A: -5.801%; B: -12.4%; C: -1.47%; D: 98.85%.
With COc1c(C)cnc(CNC(=O)CCOCC(C)C)c1C the screen gave A: 2.33%; B: -5.882%; C: 6.003%; D: 17.73%.
With COc1ccc(-n2ccc(C(=O)NCCN3CCCCC3)n2)cc1 the screen gave A: -18.1%; B: 4.774%; C: 0.2627%; D: -0.9965%.
With CCn1cc(CN2CCC(c3ncc(Cl)cc3S(C)(=O)=O)CC2)c(C)n1 the screen gave A: -5.427%; B: 21.07% & 9.794%; C: 1.082%; D: 14.92%.
With CC(C)NC(=O)c1ccc2c(c1)C1(CCN(C(C)C)CC1)C(=O)N2.O=C(O)C(F)(F)F the screen gave D: 2.522%.
With CC(=O)N1CCCN(C(=O)CCOc2ccc(C(C)C)cc2)CC1 the screen gave A: -12.9%; B: 4.183%; C: -2.666%; D: -0.2094%.
With CCc1ccc2c(C3CN(CC4CCC4)C3)ncn2c1.O=C(O)C(F)(F)F the screen gave D: 20.81%.
With COCC(=O)N1CC(c2n[nH]cc2C)C1 the screen gave A: 15.98%; B: -5.521%; C: 0.3004%; D: -21.99%.
With F[C@@H]1CN(Cc2ccccc2)C[C@@H]1OCc1nc2cnccc2[nH]1 the screen gave A: -1.364%; B: 5.697%; C: 1.214%; D: -25.05%.
With Cc1cc(C(F)(F)F)nc(C2CCN(C(=O)CO)CC2)n1 the screen gave A: -14.65%; B: -9.33%; C: 0.6691%; D: 39.93%.
With CCO[C@@H]1CC[C@H]2[C@H]1OCCN2Cc1ccc(F)cc1 the screen gave A: -3.32%; B: 9.001%; C: 0.9907%.
With O=C(C[S+]([O-])Cc1ccc(F)cc1Cl)NC1CCCC1 (stereo unspecified) the screen gave A: -5.146%; B: 1.961%; C: 1.631%; D: 15.37%.
With O=C(O)C(F)(F)F.O=C(O)C(F)(F)F.[H][C@@]12CCN(C(=O)C3CC3)C[C@]1([H])[C@@H](CN(C)Cc1cccnc1)OC2 the screen gave D: 12.46%.
With Cc1cnc(C(=O)N2CCCC(n3ccnc3C)C2)cn1 (stereo unspecified) the screen gave A: -5.812%; B: 6.845%; C: -2.801%; D: 0.8609%.
With [H][C@]12CC[C@]([H])(CN(S(=O)(=O)N(C)C)C1)N(Cc1cccc(C#N)c1)C2 the screen gave D: -17.78%.
With CC(C)(C)OC(=O)NC1(c2noc(-c3ccco3)n2)CCC1 the screen gave A: 2.658%; B: 2.016%; C: 7.756%; D: 4.551%.
With CCOCC1COCCC12CCN(C(=O)CC1=CCCCC1)CC2 (stereo unspecified) the screen gave A: -8.926%; C: 10.24%; D: -5.301%.
With Cc1nn(C)c(C)c1NC(=O)CNC(c1ccccc1)C1CCCC1 (stereo unspecified) the screen gave A: -8.911%; B: 3.099%; C: 1.548%; D: -32.75%.
With O=C(c1cncc(Br)c1)N1CCC(O)(Cn2ccc3ccncc32)CC1 the screen gave A: -5.408%; B: -0.5556%; C: 5.512%; D: 6.578%.
With Cc1ccc(NS(=O)(=O)c2c[nH]c3ncccc23)nc1 the screen gave A: -1.437%; B: -17.67%; C: 0.5222%; D: 12.3%.
With COc1cc(OC)cc(-n2ccnc2-c2cc3n(n2)CCNC3)c1 the screen gave A: 0.6416%; B: 6.731%; C: 3.872%; D: -26.71%.
With CN1CCN(C)C(CNc2c(C#N)cnc3ccc(Cl)cc23)C1 (stereo unspecified) the screen gave A: -0.5713%; B: 2.166%; C: 2.684%; D: 5.012%.
With Cc1ccc(CN2CCOC3(COCCN(S(C)(=O)=O)C3)C2)s1 (stereo unspecified) the screen gave A: -2.888%; B: 16.31%; C: 6.539%.

2 of the entries, repeated:

structure,A,B,C,D
O=C(C[S+]([O-])Cc1ccc(F)cc1Cl)NC1CCCC1 (stereo unspecified),-5.146,1.961,1.631,15.37
O=C(c1ccoc1)N1CC[C@H]2[C@H]1CCN2CC1CC1,-12.24,2.703,-1.954,-

The values are deposited in ChEMBL (CHEMBL3988442, “University of Dundee, Small-Polar-MMV Screening Library” (2021)).